# Data as given in PubChem BioAssay AID504465 (National Center for Advancing Translational Sciences (NCATS), 2011).
# In all, about 2,100 compounds went through this assay and about 210 (10%) were called active. The inconclusive results got no clear call from the source; some entries with a clear call stand among them for comparison. The call rests on the fitted dose curve; in most records, active means well fitted inhibition curve with a large enough effect; inconclusive means small, poorly fitted or top-dose-only effect, or effect the other way; inactive means no such curve, though single readings can be large or run the other way. Where the call is inconclusive, the potency comes from a doubtful curve fit.
# Test: IN Cell qHTS Assay for Inhibitors of the mTORC1 Signaling Pathway in MEF (Tsc2-/-, p53-/-) Cells: Sytravon; further: nearly all actives have a fitted effect of over 60% in size;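 on activity, negative = inhibition: plate controls were DMSO wells for no effect and 7.5 nM rapamycin full pathway inhibition for full effect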
# Conditions: phospho-rpS6 immunofluorescence, 24 h; activity, negative = inhibition: at 38.3 µM (top of the series)
# In short: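 Tsc2-/-, p53-/- MEFs (empty-vector) treated with compound 24 h at 37 degree Celsius, then fixed and stained for phospho-rpS6 Ser235/236 (Alexa-488) plus Hoechst. Reported as % positive cells, thresholds set against 7.5 nM rapamycin and DMSO wells.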
# Potency means the concentration at half of the fitted maximal effect.
SMILES,Potency,"activity, negative = inhibition"
CCN(CC)CCCNC(=O)c1ccc2c(c1)N(Cc1c(F)cccc1Cl)C(=O)c1ccccc1S2,"inconclusive: 5.21 µM [falling, full curve, poor fit]",
Fc1ccc(Nc2nc3nonc3nc2Nc2cccc(C(F)(F)F)c2)cc1,"inconclusive: 3.29 µM [falling, full curve, poor fit]",
O=C(CSc1nc(-c2ccccc2)[nH]c1-c1ccccc1)Nc1ccc2c(c1)OCO2,,inactive: -14.4%
Cc1ccc(C)c(NC(=O)CCc2nc(-c3ccc(C(C)(C)C)cc3)no2)c1,"inconclusive: 23.3 µM [falling, single point]",
CCC1CCCCN1CCCNC(=O)c1ccc2c(c1)N(Cc1ccccc1F)C(=O)c1ccccc1S2(=O)=O (stereo not given),"inconclusive: 23.3 µM [falling, single point]",
CCCS(=O)(=O)N1CC(=O)N(c2ccccc2F)C(C)(C(=O)NC2CCCCCC2)C1 (stereo not given),,inactive: 1.49%
Cc1ccc(NC(=O)CSc2ncc(S(=O)(=O)c3ccc(C(C)C)cc3)c(=O)[nH]2)cc1C,"inconclusive: 0.233 µM [falling, partial curve, poor fit]",
CCC(=O)N1CCc2cc(S(=O)(=O)NC(CC(C)C)C(=O)NCCc3cccc(C)c3)ccc21 (stereo not given),"inconclusive: 1.47 µM [falling, partial curve, poor fit]",
Cc1ccc(S(=O)(=O)N2CCc3cc(C(=O)Nc4ccc(C(F)(F)F)cc4)ccc32)cc1,,inactive: -1.55%
CCOc1ccccc1NC(=O)N(Cc1ccc(F)cc1)C1CCN(CC)CC1,"inconclusive: 14.7 µM [falling, single point]",
CCC1CCc2nc3sc(C(=O)Nc4ccc(C)cc4)c(N)c3cc2C1 (stereo not given),active: 5.21 µM,
Cc1ccc(CNc2nc3c(c(=O)n(C)c(=O)n3C)n2Cc2ccc(Cl)cc2)cc1,,inactive: -29.3%
O=C(Nc1ccc(F)c(F)c1)c1cc(S(=O)(=O)N2CCc3ccccc32)ccc1F,,inactive: 6.25%
O=C(Nc1cc(C(F)(F)F)ccc1Cl)c1noc2c1CCCCC2,"inconclusive: 0.0041 µM [activator, full curve, poor fit]",
CCN(C(=O)c1sc2cc(OC)ccc2c1Cl)c1ccccc1,"inconclusive: 1.04 µM [falling, full curve, poor fit]",
COc1ccccc1CN1CCC(CNS(=O)(=O)c2cc(-c3onc(C)c3C)ccc2OC)CC1,"inconclusive: 14.7 µM [falling, partial curve, poor fit]",
O=C(NCCc1ccc(F)cc1)C(=O)NCC(c1cccs1)S(=O)(=O)c1ccc(Cl)cc1 (stereo not given),,inactive: -25.5%
CCS(=O)(=O)N1CC(=O)N(c2ccc(Cl)cc2C)C(C)(C(=O)NC2CCCCC2)C1 (stereo not given),,inactive: -2.96%
CCCCS(=O)(=O)c1oc(-c2cccs2)nc1S(=O)(=O)c1ccc(F)cc1,active: 3.69 µM,
COc1ccc(N(CC(=O)N2CCc3ccccc3C2)S(=O)(=O)c2ccc(C)cc2)cc1Cl,"inconclusive: 26.1 µM [falling, single point]",
CC1CCCN(CCCNC(=O)c2ccc3c(c2)N(Cc2cccc(Cl)c2)C(=O)c2ccccc2S3(=O)=O)C1 (stereo not given),,inactive: 0%
Cc1ccc(NC(=O)CN2C(=O)COc3ccc(S(=O)(=O)N4CCCCCC4)cc32)cc1Cl,"inconclusive: 18.5 µM [falling, single point]",

SMILES,Potency,"activity, negative = inhibition"
O=C(Nc1ccc(Br)cc1)c1cc(-c2cccs2)nc2ccccc12,"inconclusive: 0.656 µM [falling, full curve, poor fit]",
CCN(CC)c1cc(C)c2cc(NC(=O)c3cc(OC)cc(OC)c3)ccc2n1,"inconclusive: 14.7 µM [falling, single point]",
CCCCNC(=O)c1cc(-c2cccnc2)nc2ccc(S(=O)(=O)NCCCC)cc12,,inactive: 0%
COc1ccc(NC(=O)CCS(=O)(=O)c2nc(-c3cccs3)cc(C(F)(F)F)n2)cc1,,inactive: -14.4%
O=C(Nc1nnc(-c2cc(Cl)ccc2Cl)o1)c1ccc2c(c1)OCCO2,,inactive: 15.6%
COc1cc(/C=C(\C#N)c2nc3ccccc3[nH]2)ccc1OCc1ccc(F)cc1,"inconclusive: 23.3 µM [falling, single point]",
Cc1nc2scc(C)n2c(=O)c1S(=O)(=O)Nc1ccc(N2CCN(S(C)(=O)=O)CC2)cc1,,inactive: 25.4%
COc1ccc(N(Cc2ccccc2)C(=O)c2nc(S(C)(=O)=O)ncc2Cl)cc1,active: 2.33 µM,
O=C(Nc1nnc(S(=O)(=O)N2CCCCC2)s1)c1ccc(F)cc1,"inconclusive: 1.65 µM [falling, full curve, poor fit]",
CCN1CCN(c2cc(C)c3cc(NC(=O)c4cccc(Cl)c4)ccc3n2)CC1,"inconclusive: 2.33 µM [falling, full curve, poor fit]",
CCN(CCCNC(=O)c1cc2c(=O)n(CC)c3ccccc3c2s1)Cc1ccccc1,"inconclusive: 16.5 µM [falling, single point]",
CCOC(=O)N1CCN(Cc2nc3cc(NC(=O)c4ccccc4Cl)ccc3n2C(C)C)CC1,"inconclusive: 5.85 µM [falling, partial curve, poor fit]",
CCN(C(=O)CSc1nc2ccccc2n1CC(=O)N(C)C1CCCCC1)c1ccccc1,"inconclusive: 0.0521 µM [falling, full curve, poor fit]",
COc1ccc(C)cc1NC(=O)C(Cc1ccccc1)NS(=O)(=O)c1ccc(Br)s1 (stereo not given),"inconclusive: 0.736 µM [activator, single point]",
Cc1ccc(NC(=O)c2nnn(Cc3cccc(C(F)(F)F)c3)c2N)c(C)c1,"inconclusive: 13.1 µM [falling, single point]",
CCOC(=O)Cn1c(=O)c2c(nc(N3CCOCC3)n2Cc2ccccc2)n(C)c1=O,active: 8.26 µM,
CC1CCCN(CCCNC(=O)c2cc3c(Cl)nc4ccccc4c3s2)C1 (stereo not given),"inconclusive: 7.36 µM [falling, partial curve, poor fit]",
Cc1cc(Br)cc2c1N(Cc1ccccc1OC(C)C)C(=O)C2=O,"inconclusive: 18.5 µM [falling, single point]",
O=C(COC(=O)c1cccc(NC(=O)c2ccc(Br)cc2)c1)c1ccc(Cl)cc1,"inconclusive: 0.521 µM [falling, partial curve, poor fit]",
COc1cccc(CNC(=O)CCS(=O)(=O)c2cc3c(cc2C)NC(=O)CO3)c1,"inconclusive: 13.1 µM [falling, single point]",
CCCCOc1ccc(C(=O)NCC2(N3CCN(C)CC3)CCCCC2)cc1,"inconclusive: 26.1 µM [falling, partial curve, poor fit]",
COc1cccc(CNC(=O)C2Cc3cc(S(=O)(=O)N4CCCCCC4)ccc3N2C(C)=O)c1 (stereo not given),,inactive: 0%

# Not a retest: 2 of the compounds above.
SMILES,Potency,"activity, negative = inhibition"
CCOC(=O)Cn1c(=O)c2c(nc(N3CCOCC3)n2Cc2ccccc2)n(C)c1=O,active: 8.26 µM,
CC1CCCN(CCCNC(=O)c2cc3c(Cl)nc4ccccc4c3s2)C1 (stereo not given),"inconclusive: 7.36 µM [falling, partial curve, poor fit]",

# (further entries)

SMILES,Potency,"activity, negative = inhibition"
COc1cccc(CNCCSc2nnnn2C)c1OCc1ccc(Cl)cc1Cl,"inconclusive: 11.7 µM [falling, single point]",
CCN(CCCNC(=O)c1cc2c(=O)[nH]c3ccccc3c2s1)c1ccccc1,,inactive: -22.3%
Cc1c2cnn(CC(=O)NCc3ccccc3)c(=O)c2c(C)n1Cc1cccc(Cl)c1,,inactive: -19.8%
Cc1cc(C)cc(C(=O)Nc2ccc(-c3cn4cccnc4n3)cc2)c1,"inconclusive: 23.3 µM [falling, single point]",
O=C(O)CSc1nc2ccccc2nc1N1CCCCC1,,inconclusive: 13.5% [activator]
CCN1CCN(c2cc(C)c3cc(NC(=O)c4cc(OC)cc(OC)c4)ccc3n2)CC1,"inconclusive: 7.36 µM [falling, partial curve, poor fit]",
Oc1ccc(NCc2ccccc2OCc2ccccc2)cc1,"inconclusive: 23.3 µM [falling, single point]",
COc1ccccc1C(=O)Nc1ccc(-c2cc(C(F)(F)F)nn2-c2ccccc2)cc1,"inconclusive: 0.927 µM [falling, full curve]",
Cc1ccc2[nH]cc(C(c3ccccc3)c3ccc(Cl)s3)c2c1 (stereo not given),,inactive: 11.2%
CS(=O)(=O)N1CCc2cc(C(=O)Nc3ccc(Cl)c(C(F)(F)F)c3)ccc21,"inconclusive: 26.1 µM [falling, single point]",
O=C(C1CCC(CNS(=O)(=O)c2ccc(Br)s2)CC1)N1CCN(c2ccccc2Cl)CC1 (stereo not given),"inconclusive: 0.369 µM [falling, full curve, poor fit]",
COc1ccc(CCNC(=O)c2ccc3c(c2)N=C(C)c2cc(C)ccc2S3)cc1OC,,inactive: -12%
CCOc1cc(C(Nc2cc(C)ccn2)c2ccc3cccnc3c2O)ccc1OC (stereo not given),"inconclusive: 14.7 µM [falling, single point]",
Cc1ccccc1CN1CCC(CNC(=O)c2cc3ccc4cccnc4c3[nH]2)CC1,"inconclusive: 26.1 µM [falling, single point]",
O=C(NCc1ccc(F)cc1)c1ccc2c(c1)N(Cc1ccc(F)cc1Cl)C(=O)CS2,"inconclusive: 0.147 µM [falling, full curve, poor fit]",
CCOC(=O)c1ccc(N2C(=O)c3n[nH]c(C)c3C2c2cccc(Br)c2)cc1 (stereo not given),"inconclusive: 1.85 µM [falling, partial curve, poor fit]",
CN(CCCNC(=O)c1cc2c(Cl)nc3ccccc3c2s1)Cc1ccccc1,active: 18.5 µM,
Cc1cc(C)c(NC(=O)Cn2cc(S(=O)(=O)Cc3ccccc3F)c3ccccc32)c(C)c1,,inactive: -29.4%
Cc1cccc(N(CC(O)Cn2c3ccccc3c3ccccc32)S(=O)(=O)c2ccc(F)cc2)c1 (stereo not given),"inconclusive: 2.33 µM [activator, single point]",
Cc1ccccc1S(=O)Cc1ccc(C(=O)N2CCN(c3cccc(C)c3C)CC2)o1 (stereo not given),active: 3.69 µM,
O=C(Nc1cc(F)ccc1F)C1CCN(c2nc3ccccc3n3cccc23)CC1,"inconclusive: 18.5 µM [falling, single point]",
